Assay results reported in patent publication US8095350.
These are yes or no findings as the source states them, for the method shown. Some results given as binding are weak or reduced against the parent protein; the word gives no strength.

Columns and labels:
Conditions in all cases: remark: other sources report otherwise
[1] = target: T1, Human APOBEC-2 (APO2) containing residues 41-224 (human), Q9Y235; assay: X-ray crystal structure, self-association
T1 chain: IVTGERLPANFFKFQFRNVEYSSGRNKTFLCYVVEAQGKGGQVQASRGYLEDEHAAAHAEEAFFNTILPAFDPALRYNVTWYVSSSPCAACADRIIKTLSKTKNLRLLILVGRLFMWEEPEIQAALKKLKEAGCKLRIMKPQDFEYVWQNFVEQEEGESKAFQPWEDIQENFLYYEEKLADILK

[2] = target: T1, Human APOBEC-2 (APO2) containing …; assay: X-ray crystal structure, dimer interface
[3] = target: T1, Human APOBEC-2 (APO2) containing …; assay: X-ray crystal structure, figure legend FIG. 1f
[4] = target: T1, Human APOBEC-2 (APO2) containing …; assay: X-ray crystal structure, figure legend FIG. 1e
[5] = target: T1, Human APOBEC-2 (APO2) containing …; assay: X-ray crystal structure, tetramer interface

Measured: binding

B1: Human APOBEC-2 (APO2) containing residues 41-224, Q9Y235 41-224 (enzyme, UniProt Q9Y235 41-224, looked up)
chain: IVTGERLPANFFKFQFRNVEYSSGRNKTFLCYVVEAQGKGGQVQASRGYLEDEHAAAHAEEAFFNTILPAFDPALRYNVTWYVSSSPCAACADRIIKTLSKTKNLRLLILVGRLFMWEEPEIQAALKKLKEAGCKLRIMKPQDFEYVWQNFVEQEEGESKAFQPWEDIQENFLYYEEKLADILK
binds: all assays above
